For the experiment, the target named is T1, ASCL1 (achaete-scute homolog 1), endogenous in Lu139 cells (human (endogenous in Lu139)) (UniProt P50553).
T1 sequence: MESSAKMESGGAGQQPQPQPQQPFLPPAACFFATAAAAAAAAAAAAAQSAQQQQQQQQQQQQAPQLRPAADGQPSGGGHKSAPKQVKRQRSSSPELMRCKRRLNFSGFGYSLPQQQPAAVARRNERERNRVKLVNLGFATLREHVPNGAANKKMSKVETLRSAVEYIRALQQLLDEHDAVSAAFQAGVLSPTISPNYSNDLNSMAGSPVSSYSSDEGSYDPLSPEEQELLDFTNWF
Kind of experiment: proximity ligation; Duolink flowPLA Detection Kit Green, read by flow cytometry; Lu139-TetO-NEUROD1 cells with or without doxycycline, fixed with 4% paraformaldehyde, permeabilised with 0.1% Triton X-100; anti-ASCL1 (24B72D11) and anti-NEUROD1 (EPR20766) antibodies at 1:50. For orientation: A flow cytometer gives signals particle by particle.

By UniProt entry, the sequences of proteins in these tests, tags left out.
UniProt Q13562: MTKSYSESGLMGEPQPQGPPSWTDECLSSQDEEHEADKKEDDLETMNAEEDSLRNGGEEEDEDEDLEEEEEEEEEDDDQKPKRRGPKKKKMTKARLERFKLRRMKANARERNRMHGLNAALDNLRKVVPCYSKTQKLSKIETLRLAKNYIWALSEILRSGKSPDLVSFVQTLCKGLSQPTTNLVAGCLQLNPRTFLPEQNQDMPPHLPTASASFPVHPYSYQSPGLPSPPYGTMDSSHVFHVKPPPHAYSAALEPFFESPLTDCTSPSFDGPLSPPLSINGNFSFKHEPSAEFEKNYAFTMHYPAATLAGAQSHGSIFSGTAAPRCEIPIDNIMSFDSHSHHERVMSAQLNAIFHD

Results are given in words; binding and its absence hold for the method and conditions named. Binding seen in cells or lysates may run through a third protein.

As to “NEUROD1 (neurogenic differentiation factor 1), exogenous, doxycycline-induced, with C-terminal HA-tag (from UniProt Q13562 1-356)”, the binding entry is reported as “no binding”.

Values taken from PMC11906894.
